Data taken from PMC3365016.
These are yes or no findings as the source states them, for the method shown. Binding seen in cells or lysates may run through a third protein. Sequences can lack the tags named with a protein.

Molecular target: FLAG-tagged nucleolin Ncl-ΔRGG (deletion of the RGG domain) (mouse)
Test: co-IP; NIH3T3 cells co-transfected with V5-tagged G0S2 and FLAG-tagged nucleolin constructs, lysed after 48 h; 150 mM NaCl, 50 mM Tris pH 8, 1% Triton X-100; immunoblot

binding: no binding
B1: V5-tagged G0S2 (G0/G1 switch gene 2), murine, full length (protein, UniProt Q61585 1-103)
chain: MESVQELIPLAKEMMAQKPRGKLVKLYVLGSVLALFGVVLGLVETVCSPFTAASRLRDQEAAVVELREACEQQSLHKQALLAGGKAQEATLCSRALSLRQHAS
